# Laboratory results published in PubChem BioAssay AID2685 (National Center for Advancing Translational Sciences (NCATS), 2010).
# Some of the results follow. The main result of the screen is listed elsewhere. These columns were measured beside it and carry no call. The list favours compounds with an active or inconclusive main result. Words in brackets tell the shape of the fitted curve; partial curves, single points and poor fits give uncertain potencies.
# Assay: qHTS Assay for Lipid Storage Modulators in Drosophila S3 Cells;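 as to cell number change: cells counted by Cell Tracker Red CMTPX staining in the red channel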
# Details: BODIPY lipid droplet fluorescence, 18-24 h; for cell number change: measured here: cell count max response, cells fed with added oleic acid
# Summary of the method: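 Drosophila S3 cells loaded with oleic acid (400 uM, as added) and compounds at several concentrations; lipid droplets imaged by 488-nm laser-scanning cytometry, 500–530 nm intensity and object ratio to cell channel. Percent activity normalized to 20 uM Triacsin C.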
# [1] = measured here: lipid fluorescence (Fed channel) AC50, cells fed with added oleic acid
# [2] = measured here: cell number channel AC50, cells fed with added oleic acid
Structure (SMILES),cell number change [%],AC50 [1],AC50 [2]
Cc1ccc(N2CC(C(=O)NNC(=O)c3ccc(F)cc3)CC2=O)cc1 (centres undefined),-1.38,"2.59 µM [rising, full curve]",
COCCCNC(=S)Nc1ccccc1C,-29.9,,
CCOCc1cnc(C)nc1NCC(=O)c1c(C)n(C)c2ccc(OC)cc12,-9.13,"0.92 µM [rising, partial curve, poor fit]",
CC(C)Cc1nnc(NC(=O)C2CSC3(C)CCC(=O)N23)s1 (centres undefined),-30.1,,"2.06 µM [falling, full curve, poor fit]"
O=C(Cc1csc(-c2ccccc2)n1)NCc1ccco1,-10.6,,
CC(C)C[C@H](NC(=O)Nc1cccc(Cl)c1)C(=O)O,-46.2,"0.231 µM [falling, full curve]","29.1 µM [falling, single point]"
O=C(NCc1ccncc1)C12CC3CC(CC(Cl)(C3)C1)C2,10.3,,
COc1ccc(C(=O)Nc2ccc(C(=O)N3CCCCC3C)cc2)c(OC)c1OC (centres undefined),14.7,,
CC(C)Cc1cc(C(=O)O)n[nH]1,18.5,,
CC(=O)c1cccc(NC(=O)c2cc(-c3ccncc3)nc3ccccc23)c1,-1.17,"0.731 µM [falling, single point]",
Cc1ccccc1CN1C(=O)CSc2ccc(C(=O)N3CCOCC3)cc21,-13.4,"0.461 µM [falling, full curve]",
COc1ccc([C@@H]2CC=C(C(=O)O)[C@H](c3ccc(F)cc3)N2S(=O)(=O)c2ccccc2C)cc1,10.4,,
O=C(Nc1ccc(CN2CCS(=O)(=O)CC2)cc1)c1ccc(Cl)cc1,5.08,,"0.92 µM [falling, single point]"
C=C(C)Cc1c(C)c(C#N)c2[nH]c3ccccc3n2c1=O,34.2,,"29.1 µM [rising, single point]"
CS(=O)(=O)N1CCN(c2ccc(NC(=S)NC(=O)c3ccc4c(c3)OCO4)cc2)CC1,8.45,,
Cc1ccc(/C=N/NC(=O)Cn2nc(C)c(Br)c2C)o1,-10.4,,
COc1ccc(OCC(=O)Nn2c(-c3ccc(OC)cc3)nc3ccccc3c2=O)cc1,-9.03,"3.26 µM [rising, full curve]",
Cc1nn(S(=O)(=O)c2ccccc2)c(C)c1Sc1ccc([N+](=O)[O-])cc1,89.7,"18.4 µM [rising, single point]","18.4 µM [rising, single point]"
Cc1c(C(=O)O)nn(-c2cccc(C(F)(F)F)c2)c(=O)c1C#N,3.59,,
COc1ccc(S(=O)(=O)NCc2ccco2)c2ccccc12,-5.87,,
C#CCOCCOCCOCCNc1nc(N2CCN(C(=O)C([C@@H](C)CC)n3cc(C(N)Cc4ccc(O)cc4)nn3)CC2)nc(N2CCN(C(=O)[C@H](CCC(=O)O)n3cc(C(N)[C@H](C)CC)nn3)CC2)n1 (some centres undefined),-12.8,"32.6 µM [falling, single point]",

# Complete entries as entered above.
# O=C(Cc1csc(-c2ccccc2)n1)NCc1ccco1 is listed as cell number change [%]: -10.6
# Cc1c(C(=O)O)nn(-c2cccc(C(F)(F)F)c2)c(=O)c1C#N is listed as cell number change [%]: 3.59
